Experimental data: the supplement of paper PMC10331698
± gives the standard deviation of the averaged measurements. Most values lie at the level of the controls, where differences are scatter.

Columns and labels:
Experiment in all cases: level (log10 ratio to DMSO vehicle control); higher = higher biomarker level / cell amount than vehicle control
[1] = compound: O=C(O)C=C(C(F)(F)F)C(F)(F)F [3,3-Bis(trifluoromethyl)-2-propenoic acid]; details: in DMSO
Procedure: (§1)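 BioMAP Diversity Plus panel of 12 human primary cell co-culture systems (3C, 4H, LPS, SAg, BT, BF4T, BE3C, CASM3C, HDF3CGF, KF3CT, MyoF, Mphg). Compounds were added 1 h before stimulation and left for 24 h (MyoF 48 h; BT 72 h for soluble read-outs or 6 d for IgG). Biomarkers were read by ELISA, cytotoxicity by SRB, PBMC viability and proliferation by Alamar Blue. Each well value was divided by the mean of 8 DMSO control wells on the same plate and log10 transformed; duplicate blinded samples were tested at 4 concentrations.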

[2] = compound: O=S(=O)(O)CCC(F)(F)C(F)(F)C(F)(F)C(F)(F)F [4:2 Fluorotelomer sulfonic acid]; details: 2200 nM; in DMSO
Procedure: as §1

[3] = compound: O=C(O)C(F)(F)C(F)(F)C(F)(F)C(F)(F)C(F)(F)C(F)(F)C(F)(F)C(F)(F)C(F)(F)C(F)(F)C(F)(F)C(F)(F)C(F)(F)F [Perfluorotetradecanoic acid]; details: in DMSO
Procedure: as §1

[4] = compound: C=CC(=O)OCCC(F)(F)C(F)(F)C(F)(F)C(F)(F)F [2-(Perfluorobutyl)ethyl acrylate]; details: 2200 nM; in DMSO
Procedure: as §1

[5] = compound: FC(F)(I)C(F)(F)C(F)(F)C(F)(F)C(F)(F)C(F)(F)I [1,6-Diiodoperfluorohexane]; details: 2200 nM; in DMSO
Procedure: as §1

[6] = compound: O=S(=O)(O)C(F)(F)C(F)(F)C(F)(F)C(F)(F)C(F)(F)C(F)(F)F [Perfluorohexanesulfonic acid]; details: 2200 nM; in DMSO
Procedure: as §1

[7] = compound: FC(F)(F)C(F)(C(F)(F)F)C(F)(F)C(F)(F)CC1CO1 [3-(Perfluoro-3-methylbutyl)-1,2-propenoxide]; details: in DMSO
Procedure: as §1

Hexafluoroamylene glycol = compound: OCC(F)(F)C(F)(F)C(F)(F)CO [Hexafluoroamylene glycol]; details: 2200 nM; in DMSO
Procedure: as §1

[8] = compound: O=C(Cl)C(F)(F)C(F)(F)C(F)(F)C(=O)Cl [Hexafluoroglutaryl chloride]; details: 2200 nM; in DMSO
Procedure: as §1

[9] = compound: C=CC(=O)OCC(F)(F)C(F)(F)C(F)(F)COC(=O)C=C [1H,1H,5H,5H-Perfluoro-1,5-pentanediol diacrylate]; details: 2200 nM; in DMSO
Procedure: as §1

[10] = compound: C=CC(=O)OCCC(F)(F)C(F)(F)C(F)(F)C(F)(F)C(F)(F)C(F)(F)C(F)(F)C(F)(F)F [8:2 Fluorotelomer acrylate]; details: 2200 nM; in DMSO
Procedure: as §1

[11] = compound: OCCCC(F)(F)C(F)(F)C(F)(F)C(F)(F)C(F)(F)C(F)(F)C(F)(F)F [7:3 Fluorotelomer alcohol]; details: 2200 nM; in DMSO
Procedure: as §1

Perfluoro-1-iodohexane = compound: FC(F)(F)C(F)(F)C(F)(F)C(F)(F)C(F)(F)C(F)(F)I [Perfluoro-1-iodohexane]; details: in DMSO
Procedure: as §1

Test System | level (log10) ([1]; 2200 nM) | level (log10) ([1]; 6700 nM) | level (log10) ([1]; 20000 nM) | level (log10) ([1]; 60000 nM) | level (log10) [2] | level (log10) ([3]; 740 nM) | level (log10) ([3]; 2200 nM) | level (log10) [4] | level (log10) [5] | level (log10) [6] | level (log10) ([7]; 740 nM) | level (log10) ([7]; 2200 nM) | level (log10) (Hexafluoroamylene glycol) | level (log10) [8] | level (log10) [9] | level (log10) [10] | level (log10) [11] | level (log10) (Perfluoro-1-iodohexane; 2200 nM) | level (log10) (Perfluoro-1-iodohexane; 6700 nM) | level (log10) (Perfluoro-1-iodohexane; 20000 nM) | level (log10) (Perfluoro-1-iodohexane; 60000 nM)
3C:CXCL9/MIG | -0.006 ± 0.0042 | -0.015 ± 0.017 | -0.004 ± 0.028 | 0.013 ± 0.025 | 0.0005 ± 0.0021 | 0.0045 ± 0.0064 | 0.003 ± 0.0057 | -0.009 ± 0.0099 | 0.0045 ± 0.0021 | -0.0055 ± 0.026 | -0.0095 ± 0.021 | -0.009 ± 0.0099 | -0.0025 ± 0.005 | -0.004 ± 0.0042 | 0.005 ± 0.025 | -0.0105 ± 0.015 | -0.002 ± 0.011 | 0.0075 ± 0.0021 | 0.0045 ± 0.025 | 0.007 ± 0.014 | 0.0075 ± 0.029
lMphg:CXCL8/IL-8 | 0.0805 ± 0.0064 | 0.081 ± 0.016 | 0.123 ± 0.014 | 0.201 ± 0.047 | 0.017 ± 0.0085 | 0.008 ± 0.0042 | -0.036 ± 0.0085 | 0.0055 ± 0.022 | 0.017 ± 0.017 | 0.0345 ± 0.015 | 0.0445 ± 0.033 | -0.001 ± 0.0014 | -0.007 ± 0.014 | 0.0475 ± 0.0064 | 0.015 ± 0.052 | 0.0125 ± 0.083 | 0.007 ± 0.011 | 0.0015 ± 0.012 | -0.0075 ± 0.039 | 0.0325 ± 0.016 | 0.0585 ± 0.064
lMphg:SRB-Mphg | 0.0015 ± 0.033 | -0.032 | -0.017 ± 0.014 | 0.0035 ± 0.012 | -0.003 ± 0.028 | 0.012 ± 0.018 | -0.008 ± 0.0042 | 0.0355 ± 0.021 | 0.0435 ± 0.013 | 0.061 ± 0.048 | 0.034 ± 0.017 | 0.0355 ± 0.011 | -0.0015 ± 0.016 | 0.0205 ± 0.025 | 0.006 ± 0.0014 | 0.0015 ± 0.0021 | 0.005 ± 0.017 | 0.009 ± 0.021 | 0.002 ± 0.0057 | -0.006 ± 0.0028 | 0.0025 ± 0.029
HDF3CGF:EGFR | -0.025 ± 0.062 | -0.02 ± 0.041 | -0.039 ± 0.05 | -0.0145 ± 0.0035 | -0.0365 ± 0.049 | -0.0195 ± 0.046 | -0.075 ± 0.035 | 0.0155 ± 0.015 | -0.001 ± 0.0071 | -0.0015 ± 0.019 | 0.007 ± 0.013 | -0.0165 ± 0.005 | -0.0165 ± 0.025 | -0.014 ± 0.0014 | -0.0025 ± 0.028 | -0.0015 ± 0.088 | 0.0175 ± 0.069 | -0.002 ± 0.034 | 0.016 ± 0.05 | 0.0115 ± 0.043 | -0.035 ± 0.14
LPS:CXCL8/IL-8 | -0.0265 ± 0.035 | -0.052 ± 0.0099 | -0.047 ± 0.037 | -0.007 ± 0.069 | 0.0355 ± 0.093 | 0.011 ± 0.0085 | -0.0075 ± 0.0035 | 0.0205 ± 0.012 | 0.0055 ± 0.012 | 0.0115 ± 0.019 | 0.0345 ± 0.012 | 0.025 ± 0.048 | 0.05 ± 0.04 | -0.0155 ± 0.032 | 0.0065 ± 0.016 | 0.0145 ± 0.064 | 0.001 ± 0.033 | -0.0225 ± 0.005 | -0.0045 ± 0.015 | 0.005 | 0.015 ± 0.017
BE3C:CD87/uPAR | -0.0085 ± 0.044 | -0.0365 ± 0.025 | -0.0635 ± 0.013 | -0.012 ± 0.013 | 0.015 ± 0.048 | 0.0115 ± 0.0064 | 0.0135 ± 0.00071 | 0.008 ± 0.025 | 0.016 ± 0.059 | 0.0105 ± 0.013 | 0.0175 ± 0.012 | -0.0015 ± 0.012 | 0.001 ± 0.0028 | 0.0175 ± 0.021 | 0.013 ± 0.025 | 0.0425 ± 0.013 | 0.025 ± 0.017 | 0.017 ± 0.033 | 0.0165 ± 0.018 | 0.0035 ± 0.00071 | 0.0465 ± 0.026
BE3C:CXCL11/I-TAC | -0.0205 ± 0.025 | -0.0375 ± 0.0092 | -0.033 ± 0.023 | -0.019 ± 0.011 | -0.005 ± 0.042 | -0.052 ± 0.11 | -0.073 ± 0.035 | -0.012 ± 0.011 | 0.004 ± 0.017 | 0.011 ± 0.018 | -0.01 ± 0.0085 | 0 ± 0.016 | 0.0185 ± 0.074 | 0.021 ± 0.014 | -0.0105 ± 0.0035 | 0.0035 ± 0.03 | 0.0275 ± 0.0021 | 0.0115 ± 0.026 | -0.0005 ± 0.0021 | 0.002 ± 0.0057 | 0.0175 ± 0.0092
CASM3C:CXCL8/IL-8 | 0.0025 ± 0.0035 | -0.0025 ± 0.0021 | -0.0045 ± 0.005 | 0.0125 ± 0.022 | 0.0105 ± 0.016 | 0.0135 ± 0.018 | 0.008 ± 0.018 | 0.004 ± 0.0085 | -0.0005 ± 0.028 | -0.0005 ± 0.0078 | 0.009 ± 0.02 | -0.0015 ± 0.016 | 0.0235 ± 0.03 | 0.028 ± 0.0057 | 0.002 ± 0.018 | -0.0065 ± 0.033 | 0.0015 ± 0.028 | 0.0085 ± 0.012 | 0.0055 ± 0.0092 | -0.0005 ± 0.0078 | 0.011 ± 0.021
BT:sIL-17A | 0.007 ± 0.075 | 0.0535 ± 0.043 | -0.246 ± 0.1 | -0.482 ± 0.0028 | -0.078 ± 0.028 | 0.03 ± 0.073 | 0.029 ± 0.095 | -0.0935 ± 0.11 | 0.0465 ± 0.064 | 0.0055 ± 0.16 | -0.0195 ± 0.066 | 0.004 ± 0.1 | 0.006 ± 0.14 | -0.095 ± 0.1 | -0.34 ± 0.12 | 0.077 ± 0.059 | -0.13 ± 0.26 | -0.0115 ± 0.039 | -0.004 ± 0.018 | -0.0905 ± 0.12 | -0.089 ± 0.2
CASM3C:CD106/VCAM-1 | -0.0745 ± 0.026 | -0.152 ± 0.012 | -0.216 ± 0.021 | -0.284 ± 0.054 | 0.007 ± 0.016 | 0.011 ± 0.025 | -0.0335 ± 0.028 | -0.028 ± 0.0099 | -0.0265 ± 0.06 | -0.02 ± 0.031 | -0.025 ± 0.017 | -0.016 ± 0.0057 | 0.003 ± 0.0014 | -0.0245 ± 0.016 | -0.023 ± 0.03 | -0.0335 ± 0.018 | 0.008 ± 0.027 | 0.011 ± 0.0071 | 0.003 ± 0.017 | -0.003 ± 0.025 | -0.023 ± 0.041
BT:sIL-2 | -0.113 ± 0.088 | -0.297 ± 0.042 | -0.529 ± 0.02 | -0.648 ± 0.072 | -0.0345 ± 0.047 | 0.0365 ± 0.018 | 0.062 ± 0.096 | 0.025 ± 0.018 | -0.018 ± 0.13 | 0.038 ± 0.093 | 0.0575 ± 0.039 | 0.0375 ± 0.035 | -0.0205 ± 0.04 | 0.0015 ± 0.0078 | -0.135 ± 0.042 | 0.0715 ± 0.0035 | 0.0195 ± 0.05 | 0.0425 ± 0.0078 | 0.0065 ± 0.052 | -0.0005 ± 0.1 | -0.0005 ± 0.098
HDF3CGF:MMP-1 | -0.023 ± 0.014 | -0.015 ± 0.0014 | -0.013 ± 0.017 | -0.001 ± 0.0099 | -0.0045 ± 0.042 | -0.002 ± 0.028 | -0.0115 ± 0.015 | 0.01 ± 0.031 | 0.009 ± 0.013 | 0.0005 ± 0.015 | -0.004 ± 0.016 | 0.003 ± 0.0057 | -0.023 ± 0.02 | 0.0025 ± 0.0092 | 0.114 ± 0.011 | 0.009 ± 0.0057 | -0.007 ± 0.018 | -0.013 ± 0.0085 | 0.0065 ± 0.0035 | -0.0075 ± 0.029 | -0.034 ± 0.017

Whole records, quoted from the list. Values in the order: level (log10) ([1]; 2200 nM) | level (log10) ([1]; 6700 nM) | level (log10) ([1]; 20000 nM) | level (log10) ([1]; 60000 nM) | level (log10) [2] | level (log10) ([3]; 740 nM) | level (log10) ([3]; 2200 nM) | level (log10) [4] | level (log10) [5] | level (log10) [6] | level (log10) ([7]; 740 nM) | level (log10) ([7]; 2200 nM) | level (log10) (Hexafluoroamylene glycol) | level (log10) [8] | level (log10) [9] | level (log10) [10] | level (log10) [11] | level (log10) (Perfluoro-1-iodohexane; 2200 nM) | level (log10) (Perfluoro-1-iodohexane; 6700 nM) | level (log10) (Perfluoro-1-iodohexane; 20000 nM) | level (log10) (Perfluoro-1-iodohexane; 60000 nM)
HDF3CGF:MMP-1 as listed: -0.023 ± 0.014 | -0.015 ± 0.0014 | -0.013 ± 0.017 | -0.001 ± 0.0099 | -0.0045 ± 0.042 | -0.002 ± 0.028 | -0.0115 ± 0.015 | 0.01 ± 0.031 | 0.009 ± 0.013 | 0.0005 ± 0.015 | -0.004 ± 0.016 | 0.003 ± 0.0057 | -0.023 ± 0.02 | 0.0025 ± 0.0092 | 0.114 ± 0.011 | 0.009 ± 0.0057 | -0.007 ± 0.018 | -0.013 ± 0.0085 | 0.0065 ± 0.0035 | -0.0075 ± 0.029 | -0.034 ± 0.017
HDF3CGF:EGFR as listed: -0.025 ± 0.062 | -0.02 ± 0.041 | -0.039 ± 0.05 | -0.0145 ± 0.0035 | -0.0365 ± 0.049 | -0.0195 ± 0.046 | -0.075 ± 0.035 | 0.0155 ± 0.015 | -0.001 ± 0.0071 | -0.0015 ± 0.019 | 0.007 ± 0.013 | -0.0165 ± 0.005 | -0.0165 ± 0.025 | -0.014 ± 0.0014 | -0.0025 ± 0.028 | -0.0015 ± 0.088 | 0.0175 ± 0.069 | -0.002 ± 0.034 | 0.016 ± 0.05 | 0.0115 ± 0.043 | -0.035 ± 0.14
